Source: patent US6548292B1, “Bacterial plasmid having genes encoding enzymes for the degradation of aromatic compounds” (E. I. du Pont de Nemours and Company, priority 1999, dated 2003)
The name of at least one read-out is uncertain.

The compounds below were run on Pseudomonas strain CT14 (assay: Carbon source utilization for the strain CT14 (growth on S12 agar with the compound as sole source of carbon and energy)). Conditions: approximately 25° C.
Format: cell-based

Row | SMILES | Growth on Carbon Source
1 | Nc1ccccc1 [aniline] | −
2 | OCc1ccccc1 [benzyl alcohol] | +
3 | Clc1ccccc1 [chlorobenzene] | −
4 | Cc1ccc(O)cc1 [p-cresol] | −
